# Experimental data: PubChem BioAssay AID1259308 (NCATS, 2017)
# Screen: 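Genes whose loss raises luciferase production in HEK293 cells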 (primary screen)
# System: human HEK293 embryonic kidney cells stably expressing firefly luciferase (HEK-CMV-Luc2-Hygro)
# Reagent: single siRNA against human genes, 0.8 pmol siRNA per well
# Time to read-out: 72 h
# Measured: 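Luciferase light (ONE-Glo) measured on one replicate plate set and viability (CellTiter-Glo) on the other, scaled to a negative control siRNA, with robust z-scores and luciferase per cell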
# Reading the numbers: total luciferase, z-score and total luciferase, % of control: higher = more reporter protein produced; luciferase per cell, z-score: higher = more reporter output per viable cell; viable cells, % of control: higher = more viable cells
# Call rule: 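Active when the median/MAD z-score for overall luciferase is greater than 3; a gene was taken forward for validation with new siRNAs if at least two of its three siRNAs passed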
# Calls: active = raised luciferase; inactive = no rise
# The deposit covers about 59,000 reagents; shown is a part drawn at random. In the full data, about 1,510 (2.6%) got an active call. 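Calls use total luciferase alone and ignore viability, so some active siRNAs may act by altering cell number.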 The numbers tell different reagents against one gene apart.
gene knocked down,siRNA no.,"total luciferase, z-score","total luciferase, % of control","luciferase per cell, z-score","viable cells, % of control",activity call
CDK5R1,1,1.15,105,0.633,99.2,inactive
CDK5R1,2,-0.863,64.7,0.294,67,inactive
CDK5R1,3,0.817,98.1,0.502,96.1,inactive
SLC22A5,1,1.13,104,0.816,94,inactive
SLC22A5,2,-1.65,49.2,-0.829,68.3,inactive
SLC22A5,3,-2.29,36.4,-1.61,62.2,inactive
LMO1,1,0.353,88.9,0.307,91.6,inactive
LMO1,2,0.967,101,1.02,86.5,inactive
LMO1,3,-1.12,59.7,-1.36,95.3,inactive
DCBLD2,1,-0.131,79.3,-0.611,104,inactive
DCBLD2,2,-1.3,56,-0.981,81,inactive
DCBLD2,3,-0.906,63.9,-0.115,73.6,inactive
ADGRG7,1,1.55,113,1.28,90.1,inactive
ADGRG7,2,0.918,100,1.07,84.4,inactive
ADGRG7,3,1.19,106,0.646,99.6,inactive
HHIP,1,0.545,92.7,1.31,73.4,inactive
HHIP,2,0.514,92.1,0.297,95.2,inactive
HHIP,3,-0.506,71.8,0.577,68.9,inactive
CDK20,1,0.323,88.3,0.312,90.9,inactive
CDK20,2,1.43,110,1.48,83.6,inactive
CDK20,3,-0.315,75.6,-0.502,96.5,inactive
CDC42BPB,1,-0.898,64,-0.147,74.4,inactive
CDC42BPB,2,-0.336,75.2,-0.935,108,inactive
CDC42BPB,3,0.753,96.9,1.82,67,inactive
SIMC1,1,0.961,101,0.709,93.7,inactive
SIMC1,2,-0.0882,80.1,-0.0148,89.9,inactive
SIMC1,3,0.0583,83,0.146,89.3,inactive
SH3BGRL3,1,0.619,94.2,0.0729,103,inactive
SH3BGRL3,2,1.25,107,0.757,97.7,inactive
SH3BGRL3,3,-0.243,77,-0.269,92.4,inactive

In a second layout: 10 of the entries above.
gene knocked down	siRNA no.	total luciferase, z-score	total luciferase, % of control	luciferase per cell, z-score	viable cells, % of control	activity call
CDK20	1	0.323	88.3	0.312	90.9	inactive
CDK20	2	1.43	110	1.48	83.6	inactive
CDK20	3	-0.315	75.6	-0.502	96.5	inactive
CDC42BPB	1	-0.898	64	-0.147	74.4	inactive
CDC42BPB	2	-0.336	75.2	-0.935	108	inactive
CDC42BPB	3	0.753	96.9	1.82	67	inactive
SIMC1	1	0.961	101	0.709	93.7	inactive
SIMC1	2	-0.0882	80.1	-0.0148	89.9	inactive
SIMC1	3	0.0583	83	0.146	89.3	inactive
SH3BGRL3	1	0.619	94.2	0.0729	103	inactive

Additional results:
gene knocked down,siRNA no.,"total luciferase, z-score","total luciferase, % of control","luciferase per cell, z-score","viable cells, % of control",activity call
SAAL1,1,-0.485,72.2,-0.917,103,inactive
SAAL1,2,0.383,89.5,0.402,90,inactive
SAAL1,3,-1.65,49,-2.28,100,inactive
ERC1,1,0.27,87.3,-0.23,104,inactive
ERC1,2,4.25,166,2.55,94.9,active
ERC1,3,-0.802,65.9,-1.39,106,inactive
SPINK8,1,0.384,89.5,0.0108,99.8,inactive
SPINK8,2,-1.15,58.9,-0.576,76.6,inactive
SPINK8,3,-0.114,79.6,-0.257,95.2,inactive
RTN4RL2,1,0.169,85.3,0.489,83.8,inactive
RTN4RL2,2,-0.148,78.9,-0.125,91.2,inactive
RTN4RL2,3,-1.03,61.5,-1.89,113,inactive
GAL3ST4,1,-0.0903,80.1,-0.149,93.1,inactive
GAL3ST4,2,-0.255,76.8,-0.608,101,inactive
GAL3ST4,3,-0.389,74.1,-1.19,113,inactive
DUSP16,1,0.34,88.6,0.544,85.8,inactive
DUSP16,2,0.521,92.2,0.79,83.7,inactive
DUSP16,3,-1.3,56.1,-0.959,80.7,inactive
FTMT,1,0.578,93.4,1.38,72.6,inactive
FTMT,2,0.301,87.9,0.074,96.3,inactive
FTMT,3,1.05,103,0.573,98.7,inactive
ATG101,1,0.74,96.6,0.00433,108,inactive
ATG101,2,2.07,123,1.77,86.3,inactive
ATG101,3,0.345,88.7,0.29,91.9,inactive
SFMBT2,1,0.142,84.7,-0.325,103,inactive
SFMBT2,2,0.331,88.5,-0.0852,101,inactive
SFMBT2,3,0.0044,82,-0.289,98.9,inactive
NDUFV1-DT,1,0.552,92.9,1.75,65.4,inactive
NDUFV1-DT,2,0.545,92.7,0.201,98.3,inactive
NDUFV1-DT,3,-0.804,65.9,0.821,59.3,inactive
FRMD8,1,-0.276,76.4,-0.436,95.8,inactive
FRMD8,2,0.416,90.2,-0.506,115,inactive
FRMD8,3,0.76,97,0.00813,108,inactive
NOP9,1,-0.353,74.9,-0.361,92,inactive
NOP9,2,0.112,84.1,0.691,78.4,inactive
NOP9,3,-0.299,75.9,-0.684,102,inactive
CRY1,1,-0.142,79.1,0.183,84.2,inactive
CRY1,2,0.159,85,-0.553,110,inactive
CRY1,3,-0.746,67.1,-1.41,108,inactive
GALNT2,1,-1.45,53,-1.61,90.5,inactive
GALNT2,2,-0.748,67,-0.781,92,inactive
GALNT2,3,-1.5,52.1,-1.78,93,inactive
CNTRL,1,0.235,86.6,0.508,84.6,inactive
CNTRL,2,3.3,148,1.94,98.9,active
CNTRL,3,0.546,92.7,0.474,91.5,inactive
